The other results are listed elsewhere or left out.

Protein sequences, listed by entry. Tags and fused reporters are not part of them.
UniProt Q0JBA9, entry or part of it: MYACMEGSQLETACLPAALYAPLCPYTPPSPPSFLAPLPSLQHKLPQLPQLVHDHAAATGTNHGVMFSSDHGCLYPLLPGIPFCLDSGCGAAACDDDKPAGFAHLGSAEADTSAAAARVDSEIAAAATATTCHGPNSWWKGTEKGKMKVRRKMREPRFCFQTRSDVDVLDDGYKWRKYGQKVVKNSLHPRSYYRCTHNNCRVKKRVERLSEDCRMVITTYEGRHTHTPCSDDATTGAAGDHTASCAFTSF

This assay has as its target OsWRKY34 (Oryza sativa, UniProt Q0JBA9 1-250). The assay can be described thus: protein-binding microarray (RPBM); PBS, 2% BSA, 51.3 ng/ul salmon testes DNA, 50 uM zinc acetate, 200 nM TF, 25 C, 1 h; high values mean tight binding. The following applies: protein: recombinant; tags: N-terminal polyhistidine and DsRed monomer fusion (pET32a); label: CyDye5-dUTP incorporated in the synthesized complementary strand; 3' TTTTT single-stranded linker to array surface; dsDNA, one strand shown. Summed up: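 Ni–NTA purification followed expression in E. coli BL21-CodonPlus of transcription factors fused N-terminally to a polyhistidine tag and DsRed. At 200 nM in PBS with 2% BSA, salmon testes DNA and 50 µM zinc acetate, the protein was incubated for 1 h at 25 °C with a custom Agilent array that had been primer-extended with Cy5-dUTP and blocked with 2% BSA. After washing, the array was read on an Axon 4000B scanner. The binding signal is per-feature fluorescence intensity in arbitrary units.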
For the sequence “ACGGTAGTAGTTAGGATTTTCTTTTTTTCGTGAGATTTTTCGGAGTCACCTAGTGCAG”, the binding signal was 8110 fluorescence intensity (a.u.).

Turning to “ATTTAGGGACGGGGAGTATATGCCAAGTACTTTTAGATATCGGAGTCACCTAGTGCAG”, the binding signal is 11000 fluorescence intensity (a.u.).

Regarding “AAATCAAATTCTCATATTAATTTCACCGTCAATTCTCTCGCGGAGTCACCTAGTGCAG”, the binding signal was 9030 fluorescence intensity (a.u.).

Regarding “AAAATATCAGATTAATCCATTTTTCAAGTTTGTAGTAATTCGGAGTCACCTAGTGCAG”, the binding signal is 8360 fluorescence intensity (a.u.).

Turning to “TCTCCGTTCTCATCAGGCTTTAGCCACACTGCTTCAATATCGGAGTCACCTAGTGCAG”, the binding signal is 9660 fluorescence intensity (a.u.).

Consider “CTCCGGCCAATCACCGCCGCTGTCGTTGCGTTCGCCGGCGCGGAGTCACCTAGTGCAG”, for which the binding signal was 9630 fluorescence intensity (a.u.).

Turning to “AAAGTGAACAGGCCCCTAGCGTAGATGTCGGGTGGGATGGCGGAGTCACCTAGTGCAG”, the binding signal is 8590 fluorescence intensity (a.u.).

With “TCGTAGGGTGCGGGGTGGCTGCCTGTCTCCTTCGCCTCGCCGGAGTCACCTAGTGCAG”, the binding signal was 9680 fluorescence intensity (a.u.).

As for “AACTTGAAATAAGTTTCAGTGTGTCTATTTTTGTTTTTTACGGAGTCACCTAGTGCAG”, the binding signal is 8090 fluorescence intensity (a.u.).

Regarding “TCTCTCCACCCTTGCCCACCTGAACCCGCGTCCATACGCCCGGAGTCACCTAGTGCAG”, the binding signal was 8230 fluorescence intensity (a.u.).

For “GCGGCAGGGTCTATTTTTGTAATTTTTTTTGGCCGATAGACGGAGTCACCTAGTGCAG”, the binding signal is 8620 fluorescence intensity (a.u.).

In the case of “AATCCCTTCAATACCCCTGAATTTGACATCACCCCTTATACGGAGTCACCTAGTGCAG”, the binding signal was 9940 fluorescence intensity (a.u.).

With “GTAGAGTGGTGGTGGGGTGTGCAAGCAATCCGGGTGGATTCGGAGTCACCTAGTGCAG”, the binding signal is 9110 fluorescence intensity (a.u.).

Take “TTCTTCTTCATCCAGCTGCATGCCACGGACTGCAATCTATCGGAGTCACCTAGTGCAG”: the binding signal was 8880 fluorescence intensity (a.u.).

For the sequence “GTTGCTCCGTTGCATTTTTATGAGAGTTACTGATCGAACACGGAGTCACCTAGTGCAG”, the binding signal is 11100 fluorescence intensity (a.u.).

As for “CTGACCCGCCCCGCCTCCTTCTCTCGCCGCGCTCTCGTTACGGAGTCACCTAGTGCAG”, the binding signal is 11100 fluorescence intensity (a.u.).

In the case of “CATGTTTAAAAAAGTCAACGGTGACAAACATTTAGGGAAGCGGAGTCACCTAGTGCAG”, the binding signal was 12300 fluorescence intensity (a.u.).

Consider “TGATTGATGCTACCTTTAGTCTTTAGACCCTAATTATCCTCGGAGTCACCTAGTGCAG”, for which the binding signal was 8130 fluorescence intensity (a.u.).

“TCTTCCTCGTTCTTCTTCTTCTTCTAGTATCCGTGCATAACGGAGTCACCTAGTGCAG”: the binding signal is 12000 fluorescence intensity (a.u.).

As to “CATATCCGTTTTTGCTCGGGTGGGCTGGGTTAGGGACTCACGGAGTCACCTAGTGCAG”, the binding signal was 19000 fluorescence intensity (a.u.).

In the case of “CTTTTTTTGGTTTTTTGCCTGTAATAGTATACGGGTATACCGGAGTCACCTAGTGCAG”, the binding signal is 8540 fluorescence intensity (a.u.).

In the case of “ACTCTCTCCGTATTCGTATTTTAATGTATGACGCCGTTGACGGAGTCACCTAGTGCAG”, the binding signal is 8550 fluorescence intensity (a.u.).

As for “GGTGCTCGTTTTCAGTTGGGGTCGATCAAATGTTACCATTCGGAGTCACCTAGTGCAG”, the binding signal is 8400 fluorescence intensity (a.u.).

As to “TATTTACTTTCCTATTTTTTTTACAATATTGTACATACAACGGAGTCACCTAGTGCAG”, the binding signal is 8870 fluorescence intensity (a.u.).

On to “GCTCCATGCTGGTTCCTGTATAATTTTGGCCCCTGGCTAACGGAGTCACCTAGTGCAG”, for which the binding signal was 9900 fluorescence intensity (a.u.).

Take “TATTCTATTGAATTGTTTATTTGTATTCATTTGGCTGCCACGGAGTCACCTAGTGCAG”: the binding signal is 9350 fluorescence intensity (a.u.).

With “TCCCTACTAGGTACCCCTTCAGGTTTCTTGGGTTTTGTTTCGGAGTCACCTAGTGCAG”, the binding signal was 9490 fluorescence intensity (a.u.).

As to “TCTTCTACTACCAGAGTGCCTCTTCTCCCGTACTCCGCCACGGAGTCACCTAGTGCAG”, the binding signal was 8090 fluorescence intensity (a.u.).

Regarding “TCTTGTGCAGGGGTTGATTTTTCAGTGTATAGGGGTATGACGGAGTCACCTAGTGCAG”, the binding signal was 16800 fluorescence intensity (a.u.).

Regarding “ATTTCTTTTTGCCCCATTATTATGGTTATTATACCACCTCCGGAGTCACCTAGTGCAG”, the binding signal is 10300 fluorescence intensity (a.u.).

On to “CCATTCATACTTTCATAGGACCTTATTTAACCTGGTTCGACGGAGTCACCTAGTGCAG”, for which the binding signal was 8070 fluorescence intensity (a.u.).

“CAGCAGTTAAGAGTTCACACCTTTCCCAGGCAACCAAATTCGGAGTCACCTAGTGCAG”: the binding signal is 8310 fluorescence intensity (a.u.).

As to “ATCTGTTTTGAGTTGTCTTAATGTCTATTCGTCATTGAAACGGAGTCACCTAGTGCAG”, the binding signal was 8510 fluorescence intensity (a.u.).

For the sequence “GATGATTATGTTTTCGCCGACTTATTATTTCACCTTCACGCGGAGTCACCTAGTGCAG”, the binding signal is 8460 fluorescence intensity (a.u.).

On to “GTGCTGTGTTCATCTCATGTGTTCATCTCATTGTTTTTGTCGGAGTCACCTAGTGCAG”, for which the binding signal was 8820 fluorescence intensity (a.u.).

On to “CTTTTGTTGTTGTTCTCTGTTGCCCTTTTTGGAGAGCTTGCGGAGTCACCTAGTGCAG”, for which the binding signal was 9400 fluorescence intensity (a.u.).

As for “TTTTCATTGTGTTGTAGCCAACAGCCACATTGTTTTCTTTCGGAGTCACCTAGTGCAG”, the binding signal was 8080 fluorescence intensity (a.u.).

“GTATTTCTATATGGACTCTATACTCTACTTCTAATATTCCCGGAGTCACCTAGTGCAG”: the binding signal is 8150 fluorescence intensity (a.u.).

In the case of “ACTTCCACCTTTCTTCTTCTTCTTCTTCTTCGCGGCGACACGGAGTCACCTAGTGCAG”, the binding signal was 8260 fluorescence intensity (a.u.).

Take “CGTCACATCGTTCCAATTTCAACCAAACTTCCAATTTTGACGGAGTCACCTAGTGCAG”: the binding signal is 8790 fluorescence intensity (a.u.).

Regarding “ACCCCACACCTTTTCTCCTACCCACCACCCGTCTCCGCAACGGAGTCACCTAGTGCAG”, the binding signal was 10500 fluorescence intensity (a.u.).

Regarding “TATCGATAGCGACAATTAATTTTTTTCTCATCTTGTTTTTCGGAGTCACCTAGTGCAG”, the binding signal is 9180 fluorescence intensity (a.u.).

Turning to “GCGCCTCAGCCTCCGCCTCCGTCTTCCCCTAGCGCCGCCGCGGAGTCACCTAGTGCAG”, the binding signal was 8420 fluorescence intensity (a.u.).

For the sequence “TTCCCTAAATGTTTGACACCGTTGACTTTTTTTTAAACATCGGAGTCACCTAGTGCAG”, the binding signal is 33300 fluorescence intensity (a.u.).

As for “TGGGCCAAACCACCGCCACGTTGCCATCGCTGATTCGCCGCGGAGTCACCTAGTGCAG”, the binding signal was 8820 fluorescence intensity (a.u.).

In the case of “CCCACTGCATTTGCCCTTTTTCTTGTTAGCGAAATCACTGCGGAGTCACCTAGTGCAG”, the binding signal is 10000 fluorescence intensity (a.u.).

In the case of “TAGTACTATTCACGTCCCATATTACTTGTCGCTTTGACTTCGGAGTCACCTAGTGCAG”, the binding signal was 11800 fluorescence intensity (a.u.).

On to “ACAACCCTAGCATGGTCACACACATATGGCATCTACATCTCGGAGTCACCTAGTGCAG”, for which the binding signal is 10600 fluorescence intensity (a.u.).

Turning to “TGTTTTTTCTGTGTTTTGCAATTCTCTGTTTTACACTTATCGGAGTCACCTAGTGCAG”, the binding signal is 13500 fluorescence intensity (a.u.).

As for “ATATATCATATGTTAATACATCTTCTCATTTTTTTTCATACGGAGTCACCTAGTGCAG”, the binding signal is 8740 fluorescence intensity (a.u.).

Consider “ATCCCTTTTTCTCATTCTTCATCTATCATTTATGTTTTTACGGAGTCACCTAGTGCAG”, for which the binding signal is 9610 fluorescence intensity (a.u.).

Consider “CACCACAGCCACACTTCTGATCACTGCTCACTCAGCTAATCGGAGTCACCTAGTGCAG”, for which the binding signal was 10800 fluorescence intensity (a.u.).

With “ATGTCAAACTTGTCCTCACTTCCCATGGCAGCTTGCTTGACGGAGTCACCTAGTGCAG”, the binding signal was 8070 fluorescence intensity (a.u.).

Take “GTATCTGATTCCTGCAATTTTTCATGTTCTTGTGTTTTTACGGAGTCACCTAGTGCAG”: the binding signal was 8670 fluorescence intensity (a.u.).

These data come from article PMC7819943, “Rice protein-binding microarrays: a tool to detect cis-acting elements near promoter regions in rice”.
